No constants are given. Whether binding was seen depends on the method and setting. Binding seen in cells or lysates may run through a third protein.
Target: Methyltransferase-like 3 (Mettl3) (UniProt Q86U44)
Test: co-IP; 293 T cells transfected with plasmids, lysed in cell lysis buffer, pre-cleared, immunoprecipitated with anti-FLAG or anti-Ha magnetic beads; IP product analysed by WB

Chains of the proteins cited; added tags and fusions are not shown.
UniProt Q86U44: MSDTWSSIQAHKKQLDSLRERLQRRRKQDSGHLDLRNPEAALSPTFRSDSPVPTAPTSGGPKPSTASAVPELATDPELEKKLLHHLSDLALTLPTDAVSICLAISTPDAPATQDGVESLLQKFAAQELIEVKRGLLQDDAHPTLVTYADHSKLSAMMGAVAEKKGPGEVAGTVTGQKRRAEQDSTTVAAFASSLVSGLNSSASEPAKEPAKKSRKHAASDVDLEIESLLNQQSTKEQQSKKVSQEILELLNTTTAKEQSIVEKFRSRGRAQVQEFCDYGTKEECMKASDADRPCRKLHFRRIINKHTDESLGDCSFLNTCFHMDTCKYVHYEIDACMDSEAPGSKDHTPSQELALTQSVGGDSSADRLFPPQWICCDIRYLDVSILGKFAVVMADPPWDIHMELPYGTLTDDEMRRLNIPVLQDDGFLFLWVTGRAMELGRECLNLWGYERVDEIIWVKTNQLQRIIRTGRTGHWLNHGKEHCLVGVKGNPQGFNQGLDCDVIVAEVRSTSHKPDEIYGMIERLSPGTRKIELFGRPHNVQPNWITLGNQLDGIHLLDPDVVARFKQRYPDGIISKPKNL
UniProt Q14781: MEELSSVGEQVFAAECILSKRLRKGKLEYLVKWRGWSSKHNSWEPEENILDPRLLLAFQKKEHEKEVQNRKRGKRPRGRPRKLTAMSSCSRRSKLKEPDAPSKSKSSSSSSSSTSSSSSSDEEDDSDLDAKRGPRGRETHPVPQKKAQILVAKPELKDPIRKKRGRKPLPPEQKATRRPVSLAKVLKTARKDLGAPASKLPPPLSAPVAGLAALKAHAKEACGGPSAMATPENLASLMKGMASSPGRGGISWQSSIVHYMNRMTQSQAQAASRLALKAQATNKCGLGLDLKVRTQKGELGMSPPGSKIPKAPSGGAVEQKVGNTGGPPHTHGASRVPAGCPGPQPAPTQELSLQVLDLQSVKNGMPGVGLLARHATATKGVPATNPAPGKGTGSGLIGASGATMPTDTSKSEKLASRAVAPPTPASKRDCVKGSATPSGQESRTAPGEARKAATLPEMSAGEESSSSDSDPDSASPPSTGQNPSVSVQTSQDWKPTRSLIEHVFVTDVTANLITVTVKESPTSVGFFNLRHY

binding: no binding
Substance: CBX2 (from UniProt Q14781 1-532)

— PMC10937286
